# According to PMC8467329:
# By UniProt entry, the sequences of proteins in these tests, tags left out.
# UniProt P83949: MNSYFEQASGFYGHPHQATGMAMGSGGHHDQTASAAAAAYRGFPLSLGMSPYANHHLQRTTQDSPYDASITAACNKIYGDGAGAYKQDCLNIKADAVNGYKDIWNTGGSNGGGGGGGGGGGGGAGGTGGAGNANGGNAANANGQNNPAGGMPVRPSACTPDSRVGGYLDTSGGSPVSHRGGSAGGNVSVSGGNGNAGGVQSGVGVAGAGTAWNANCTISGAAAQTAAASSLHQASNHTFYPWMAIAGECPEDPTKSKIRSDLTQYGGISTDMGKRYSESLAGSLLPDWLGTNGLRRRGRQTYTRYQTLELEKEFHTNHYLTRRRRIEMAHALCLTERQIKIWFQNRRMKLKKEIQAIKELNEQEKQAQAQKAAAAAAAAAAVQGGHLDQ
# UniProt P92177: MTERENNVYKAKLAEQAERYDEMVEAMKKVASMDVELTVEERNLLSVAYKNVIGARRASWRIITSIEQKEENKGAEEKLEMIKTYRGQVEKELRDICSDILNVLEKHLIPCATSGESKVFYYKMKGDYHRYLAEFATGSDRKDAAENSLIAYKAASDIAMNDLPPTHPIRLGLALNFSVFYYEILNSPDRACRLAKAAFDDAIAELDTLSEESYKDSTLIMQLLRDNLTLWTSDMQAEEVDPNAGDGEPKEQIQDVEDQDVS
# Results are given in words; binding and its absence hold for the method and conditions named. Binding seen in cells or lysates may run through a third protein. Some binding calls cover weakened binding; strength is not graded here.
# Target: Ultrabithorax (Ubx) (Drosophila melanogaster (endogenous in w1118 adult fly heads)) (UniProt P83949)
# Assay: co-IP; lysate of w1118 adult fly heads; IP with anti-14-3-3ε antibody and with anti-Ubx antibody; conducted as previously described (ref. 25)
substance,measurement,value
14-3-3ε protein (from UniProt P92177 1-262),binding,binds
